These are yes or no findings as the source states them, for the method shown. Binding seen in cells or lysates may run through a third protein. These calls come from enrichment with a bait or labelling near it, and not all partners need be listed.
Target: phosphorylated Protein kinase Cα (human (endogenous in platelets)) (UniProt P17252)
Experiment: affinity purification with mass spectrometry; immunoprecipitation with an anti-p-PKCα antibody from platelet membrane proteins of breast cancer and benign patients, isotypic IgG as negative control; SDS-PAGE, silver staining, differential bands excised and analysed by mass spectrometry; the named hits are among the proteins detected only in breast cancer platelets

The chains behind the UniProt entries cited, without tags or fusion partners.
UniProt Q9P2D3: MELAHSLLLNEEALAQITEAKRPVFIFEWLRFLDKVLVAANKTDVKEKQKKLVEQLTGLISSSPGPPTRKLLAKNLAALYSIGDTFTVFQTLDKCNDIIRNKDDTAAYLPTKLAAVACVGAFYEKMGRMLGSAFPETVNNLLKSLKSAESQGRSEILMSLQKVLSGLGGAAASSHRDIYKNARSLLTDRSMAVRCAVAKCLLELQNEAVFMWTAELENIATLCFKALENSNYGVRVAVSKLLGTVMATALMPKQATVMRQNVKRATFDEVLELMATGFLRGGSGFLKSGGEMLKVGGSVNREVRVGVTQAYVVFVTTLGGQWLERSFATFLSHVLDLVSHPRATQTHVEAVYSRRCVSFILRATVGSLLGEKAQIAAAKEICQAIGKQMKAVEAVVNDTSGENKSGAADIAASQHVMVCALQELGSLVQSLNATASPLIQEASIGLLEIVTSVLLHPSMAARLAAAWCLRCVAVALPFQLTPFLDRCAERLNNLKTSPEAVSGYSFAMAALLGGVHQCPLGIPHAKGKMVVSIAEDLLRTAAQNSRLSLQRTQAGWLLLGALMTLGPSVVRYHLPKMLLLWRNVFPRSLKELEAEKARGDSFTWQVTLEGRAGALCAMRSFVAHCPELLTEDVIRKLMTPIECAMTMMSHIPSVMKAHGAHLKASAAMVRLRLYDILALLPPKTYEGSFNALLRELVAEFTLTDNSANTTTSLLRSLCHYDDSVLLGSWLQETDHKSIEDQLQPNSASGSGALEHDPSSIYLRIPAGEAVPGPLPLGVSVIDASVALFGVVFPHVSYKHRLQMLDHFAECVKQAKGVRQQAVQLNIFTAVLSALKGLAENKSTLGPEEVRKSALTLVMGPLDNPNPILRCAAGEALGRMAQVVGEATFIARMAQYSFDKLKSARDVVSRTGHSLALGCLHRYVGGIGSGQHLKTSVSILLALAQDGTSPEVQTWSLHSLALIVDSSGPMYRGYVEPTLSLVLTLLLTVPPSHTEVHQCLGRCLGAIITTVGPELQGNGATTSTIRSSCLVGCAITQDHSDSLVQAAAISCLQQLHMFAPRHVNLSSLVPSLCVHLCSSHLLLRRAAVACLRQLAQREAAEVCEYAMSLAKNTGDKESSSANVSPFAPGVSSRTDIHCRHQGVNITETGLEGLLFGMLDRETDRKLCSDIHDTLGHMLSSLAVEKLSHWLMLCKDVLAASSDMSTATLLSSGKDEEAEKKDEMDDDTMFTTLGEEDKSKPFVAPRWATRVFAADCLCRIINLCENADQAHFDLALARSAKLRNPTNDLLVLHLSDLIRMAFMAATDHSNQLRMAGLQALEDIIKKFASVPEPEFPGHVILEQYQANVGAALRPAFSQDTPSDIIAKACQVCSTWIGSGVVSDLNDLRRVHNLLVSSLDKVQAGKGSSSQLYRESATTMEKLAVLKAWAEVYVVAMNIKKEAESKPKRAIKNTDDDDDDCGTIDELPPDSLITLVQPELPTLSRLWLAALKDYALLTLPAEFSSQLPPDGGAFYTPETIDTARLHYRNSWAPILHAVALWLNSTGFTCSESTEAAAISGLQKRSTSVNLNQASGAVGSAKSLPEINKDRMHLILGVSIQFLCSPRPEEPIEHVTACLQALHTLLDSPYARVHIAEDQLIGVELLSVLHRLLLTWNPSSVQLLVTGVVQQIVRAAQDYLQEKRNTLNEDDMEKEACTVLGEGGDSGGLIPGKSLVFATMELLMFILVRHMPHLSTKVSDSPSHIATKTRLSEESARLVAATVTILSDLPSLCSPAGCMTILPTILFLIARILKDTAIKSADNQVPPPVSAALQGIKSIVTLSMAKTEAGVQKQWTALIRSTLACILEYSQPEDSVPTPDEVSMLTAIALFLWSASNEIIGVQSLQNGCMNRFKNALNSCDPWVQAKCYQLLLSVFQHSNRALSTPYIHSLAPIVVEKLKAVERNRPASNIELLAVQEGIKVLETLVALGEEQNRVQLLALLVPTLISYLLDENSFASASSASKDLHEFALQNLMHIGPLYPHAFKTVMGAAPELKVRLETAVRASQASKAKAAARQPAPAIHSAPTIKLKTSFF
UniProt O00471: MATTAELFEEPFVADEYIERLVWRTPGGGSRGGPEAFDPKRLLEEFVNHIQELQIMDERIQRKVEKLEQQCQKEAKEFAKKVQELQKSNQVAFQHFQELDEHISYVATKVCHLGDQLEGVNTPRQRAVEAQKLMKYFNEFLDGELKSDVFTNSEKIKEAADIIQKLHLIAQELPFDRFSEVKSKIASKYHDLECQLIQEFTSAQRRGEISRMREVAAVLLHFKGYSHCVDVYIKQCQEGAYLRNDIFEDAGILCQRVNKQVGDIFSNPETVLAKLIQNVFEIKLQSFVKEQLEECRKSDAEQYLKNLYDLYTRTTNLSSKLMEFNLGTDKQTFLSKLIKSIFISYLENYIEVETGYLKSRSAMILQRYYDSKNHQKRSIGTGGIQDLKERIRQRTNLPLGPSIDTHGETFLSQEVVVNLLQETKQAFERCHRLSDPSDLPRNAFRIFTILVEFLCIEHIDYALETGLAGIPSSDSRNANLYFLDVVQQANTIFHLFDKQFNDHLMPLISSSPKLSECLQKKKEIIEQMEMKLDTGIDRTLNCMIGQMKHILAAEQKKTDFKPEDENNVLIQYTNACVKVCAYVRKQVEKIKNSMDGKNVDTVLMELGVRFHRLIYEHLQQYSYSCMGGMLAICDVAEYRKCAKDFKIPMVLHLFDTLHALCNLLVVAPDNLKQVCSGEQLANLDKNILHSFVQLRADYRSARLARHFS

Substance | binding
HEAT repeat-containing 5B (from UniProt Q9P2D3 1-2071) | binds
SEC10 (from UniProt O00471 1-708) | binds

Reference: paper PMC11302887
